Experimental data: publication PMC7300259
No constants are given. Whether binding was seen depends on the method and setting. Binding seen in cells or lysates may run through a third protein. Some binding calls cover weakened binding; strength is not graded here. Tags and fused reporters may be left off the sequences shown.

Biological target: T1, 3 × FLAG-tagged AtCPK5 (Arabidopsis) (UniProt Q38871)
T1 sequence: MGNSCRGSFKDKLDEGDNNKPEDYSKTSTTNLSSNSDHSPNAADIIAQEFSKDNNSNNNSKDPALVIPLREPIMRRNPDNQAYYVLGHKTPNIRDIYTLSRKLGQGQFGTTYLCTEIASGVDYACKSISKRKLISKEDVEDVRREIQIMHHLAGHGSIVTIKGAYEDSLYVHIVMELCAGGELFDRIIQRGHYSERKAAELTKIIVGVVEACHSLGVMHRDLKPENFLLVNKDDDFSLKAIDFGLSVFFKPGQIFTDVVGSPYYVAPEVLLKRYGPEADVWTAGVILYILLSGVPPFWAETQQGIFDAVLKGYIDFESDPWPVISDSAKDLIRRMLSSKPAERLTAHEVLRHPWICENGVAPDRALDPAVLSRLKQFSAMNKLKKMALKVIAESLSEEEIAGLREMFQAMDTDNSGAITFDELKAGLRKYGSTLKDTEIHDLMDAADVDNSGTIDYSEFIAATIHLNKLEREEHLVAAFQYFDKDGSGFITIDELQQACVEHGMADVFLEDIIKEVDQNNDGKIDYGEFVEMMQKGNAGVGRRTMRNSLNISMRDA
Assay: co-IP; transgenic Arabidopsis seedlings with AtCPK5-3xFLAG and AtLYK5-HA (native promoter), treated with 25 μg/mL chitin or water; lysate (50 mM Tris-HCl pH 7.5, 150 mM NaCl, 2 mM EDTA, 1% Triton X-100, 10% glycerol), anti-FLAG agarose 3 h at 4°C, anti-HA blot

binding: binds
B1: AtLYK5-HA (receptor, UniProt O22808 27-664)
chain: QQPYVNNHQLACEVRVYDNITNGFTCNGPPSCRSYLTFWSQPPYNTADSIAKLLNVSAAEIQSINNLPTATTRIPTRELVVIPANCSCSSSSGGFYQHNATYNLSGNRGDETYFSVANDTYQALSTCQAMMSQNRYGERQLTPGLNLLVPLRCACPTAKQTTAGFKYLLTYLVAMGDSISGIAEMFNSTSAAITEGNELTSDNIFFFTPVLVPLTTEPTKIVISPSPPPPPVVATPPQTPVDPPGSSSSHKWIYIGIGIGAGLLLLLSILALCFYKRRSKKKSLPSSLPEENKLFDSSTKQSIPTTTTTQWSIDLSNSSEAFGLKSAIESLTLYRFNDLQSATSNFSDENRIKGSVYRATINGDDAAVKVIKGDVSSSEINLLKKLNHSNIIRLSGFCIREGTSYLVFEYSENGSISDWLHSSGKKSLTWKQRVEIARDVAEALDYLHNYITPPHIHKNLESTNILLDSNFRAKIANFGVARILDEGDLDLQLTRHVEGTQGYLAPEYVENGVITSKLDVFAFGVAVLELLSGREAVTIHKKKEGEEEVEMLCKVINSVLGGENVREKLKEFMDPSLGNEYPLELAYTMAQLAKSCVATDLNSRPSVTQVLTTLSMIVSSSIDWEPSDDLLRSGSLGN
